In US12269827B1, “Substituted pyrazino[1′,2′:1,5]pyrazolo[4,3-c][1,6]naphthyridines as CK2 inhibitors” (KING FAISAL UNIVERSITY, priority 2023, dated 2025) one finds IC50 data, which are given here for one compound.

Assay type in all cases: cell-based
In one assay the test system is A375 (melanoma). The assay is described as follows: In vitro cytotoxic activity MTT assay, A375. As to conditions: Homo sapiens, A-375; A375 (melanoma) cells, exposed for 96 hours; read-out: Cytotoxicity activity IC50 (50% inhibition of cell proliferation). The protocol:
(§1) Compounds 1-16 were screened for their in vitro cytotoxic activity utilizing a 3-(4,5-dimethyl-thiazol-2-yl)-2,5-diphenyltetrazolium bromide (MTT) assay against selected cancer human cell lines consisting of PC3 (prostate), HCT116 (colon), A375 (melanoma), H1299 (lung), MIAPaCa-2 (pancreas), HL60 (leukemia), MCF7 (breast), MDA-MB-231 (breast) (T. Mosmann, J. Immunol. Meth., 1983, 65, 55-63). The cells were cultured at 37° C. in RMPI1640 medium supplemented with 10% fetal bovine serum, 50 IU/mL penicillin, and 50 µg/mL streptomycin in a 5% CO2 incubator. All cells were sub-cultured 3 times/week by trypsinisation. Viable cells were seeded and allowed to adhere for 12 hours before a test drug was added in 96-well plates at an initial density of 1.0×10^5 cells/mL. Tumor cell lines were separately exposed to various concentrations of the tested compounds followed by incubation at a temperature of 37° C. during 96 hours inside a medium of fresh RMPI 1640. Cells were subsequently incubated at 37° C. using MTT at 0.5 mg/mL during 4 hours. After removal of supernatant, formazan crystals were dissolved in isopropanol and the optical density was measured at 570 nm. CX-4945 was used as a positive control.
In general terms: Tetrazolium assays rely on reduction of a dye to a coloured formazan, in cell work by metabolically active cells.

A further assay has as its system HCT116 (colon). Kind of assay: In vitro cytotoxic activity MTT assay, HCT116. As to conditions: Homo sapiens, HCT-116; HCT116 (colon) cells, exposed for 96 hours; read-out: Cytotoxicity activity IC50 (50% inhibition of cell proliferation). As to the method:
as §1

In the next assay the test system is HL60 (leukemia). Kind of assay: In vitro cytotoxic activity MTT assay, HL60. As to conditions: Homo sapiens, HL-60; HL60 (leukemia) cells, exposed for 96 hours; read-out: Cytotoxicity activity IC50 (50% inhibition of cell proliferation). The protocol:
as §1

Another assay has as its system MDA-MB-231 (breast). Kind of assay: In vitro cytotoxic activity MTT assay, MDA-MB-231. To be noted: Homo sapiens; MDA-MB-231 (breast) cells, exposed for 96 hours; read-out: Cytotoxicity activity IC50 (50% inhibition of cell proliferation). The protocol: as §1
A further assay relates to MIAPaCa-2 (pancreas). Kind of assay: In vitro cytotoxic activity MTT assay, MIAPaCa-2. As to conditions: Homo sapiens, MIA PaCa-2; MIAPaCa-2 (pancreas) cells, exposed for 96 hours; read-out: Cytotoxicity activity IC50 (50% inhibition of cell proliferation). The protocol: as §1
The next assay has as its system MCF7 (breast). Kind of assay: In vitro cytotoxic activity MTT assay, MCF7. As to conditions: Homo sapiens; MCF7 (breast) cells, exposed for 96 hours; read-out: Cytotoxicity activity IC50 (50% inhibition of cell proliferation). As to the method: as §1
The next assay has as its system PC3 (prostate). Kind of assay: In vitro cytotoxic activity MTT assay, PC3. To be noted: Homo sapiens, Prostate cell; PC3 (prostate) cells, exposed for 96 hours; read-out: Cytotoxicity activity IC50 (50% inhibition of cell proliferation). The protocol:
as §1

The test system of a further assay is H1299 (lung). The assay is described as follows: In vitro cytotoxic activity MTT assay, H1299. As to conditions: Homo sapiens, NCI-H1299; H1299 (lung) cells, exposed for 96 hours; read-out: Cytotoxicity activity IC50 (50% inhibition of cell proliferation). As to the method: as §1

`O=C(O)c1ccc2c(c1)nc(Nc1cccc(Cl)c1)c1ccncc12` [CX-4945, reference compound]: the IC50 with A375 (melanoma) came to 4100 nM; with HCT116 (colon) it was 2300 nM; with HL60 (leukemia), 3700 nM; in the assay on MDA-MB-231 (breast), 6200 nM; in the assay with MIAPaCa-2 (pancreas), 1000 nM; with MCF7 (breast) it was 9100 nM. Further, the IC50 was 2000 nM with PC3 (prostate) and 2300 nM in the assay on H1299 (lung).
